Assay results reported in patent US9018173B2, “Materials and methods for suppressing inflammatory and neuropathic pain” (Indiana University Research and Technology Corp., priority 2010, dated 2015).
Part of at least one peptide drawing is inferred or uncertain, most often the ends. Residues, ends and D or L forms follow the SMILES beside them.

Protein sequences, listed by entry. Tags and fused reporters are not part of them.
UniProt Q02294, whole entry: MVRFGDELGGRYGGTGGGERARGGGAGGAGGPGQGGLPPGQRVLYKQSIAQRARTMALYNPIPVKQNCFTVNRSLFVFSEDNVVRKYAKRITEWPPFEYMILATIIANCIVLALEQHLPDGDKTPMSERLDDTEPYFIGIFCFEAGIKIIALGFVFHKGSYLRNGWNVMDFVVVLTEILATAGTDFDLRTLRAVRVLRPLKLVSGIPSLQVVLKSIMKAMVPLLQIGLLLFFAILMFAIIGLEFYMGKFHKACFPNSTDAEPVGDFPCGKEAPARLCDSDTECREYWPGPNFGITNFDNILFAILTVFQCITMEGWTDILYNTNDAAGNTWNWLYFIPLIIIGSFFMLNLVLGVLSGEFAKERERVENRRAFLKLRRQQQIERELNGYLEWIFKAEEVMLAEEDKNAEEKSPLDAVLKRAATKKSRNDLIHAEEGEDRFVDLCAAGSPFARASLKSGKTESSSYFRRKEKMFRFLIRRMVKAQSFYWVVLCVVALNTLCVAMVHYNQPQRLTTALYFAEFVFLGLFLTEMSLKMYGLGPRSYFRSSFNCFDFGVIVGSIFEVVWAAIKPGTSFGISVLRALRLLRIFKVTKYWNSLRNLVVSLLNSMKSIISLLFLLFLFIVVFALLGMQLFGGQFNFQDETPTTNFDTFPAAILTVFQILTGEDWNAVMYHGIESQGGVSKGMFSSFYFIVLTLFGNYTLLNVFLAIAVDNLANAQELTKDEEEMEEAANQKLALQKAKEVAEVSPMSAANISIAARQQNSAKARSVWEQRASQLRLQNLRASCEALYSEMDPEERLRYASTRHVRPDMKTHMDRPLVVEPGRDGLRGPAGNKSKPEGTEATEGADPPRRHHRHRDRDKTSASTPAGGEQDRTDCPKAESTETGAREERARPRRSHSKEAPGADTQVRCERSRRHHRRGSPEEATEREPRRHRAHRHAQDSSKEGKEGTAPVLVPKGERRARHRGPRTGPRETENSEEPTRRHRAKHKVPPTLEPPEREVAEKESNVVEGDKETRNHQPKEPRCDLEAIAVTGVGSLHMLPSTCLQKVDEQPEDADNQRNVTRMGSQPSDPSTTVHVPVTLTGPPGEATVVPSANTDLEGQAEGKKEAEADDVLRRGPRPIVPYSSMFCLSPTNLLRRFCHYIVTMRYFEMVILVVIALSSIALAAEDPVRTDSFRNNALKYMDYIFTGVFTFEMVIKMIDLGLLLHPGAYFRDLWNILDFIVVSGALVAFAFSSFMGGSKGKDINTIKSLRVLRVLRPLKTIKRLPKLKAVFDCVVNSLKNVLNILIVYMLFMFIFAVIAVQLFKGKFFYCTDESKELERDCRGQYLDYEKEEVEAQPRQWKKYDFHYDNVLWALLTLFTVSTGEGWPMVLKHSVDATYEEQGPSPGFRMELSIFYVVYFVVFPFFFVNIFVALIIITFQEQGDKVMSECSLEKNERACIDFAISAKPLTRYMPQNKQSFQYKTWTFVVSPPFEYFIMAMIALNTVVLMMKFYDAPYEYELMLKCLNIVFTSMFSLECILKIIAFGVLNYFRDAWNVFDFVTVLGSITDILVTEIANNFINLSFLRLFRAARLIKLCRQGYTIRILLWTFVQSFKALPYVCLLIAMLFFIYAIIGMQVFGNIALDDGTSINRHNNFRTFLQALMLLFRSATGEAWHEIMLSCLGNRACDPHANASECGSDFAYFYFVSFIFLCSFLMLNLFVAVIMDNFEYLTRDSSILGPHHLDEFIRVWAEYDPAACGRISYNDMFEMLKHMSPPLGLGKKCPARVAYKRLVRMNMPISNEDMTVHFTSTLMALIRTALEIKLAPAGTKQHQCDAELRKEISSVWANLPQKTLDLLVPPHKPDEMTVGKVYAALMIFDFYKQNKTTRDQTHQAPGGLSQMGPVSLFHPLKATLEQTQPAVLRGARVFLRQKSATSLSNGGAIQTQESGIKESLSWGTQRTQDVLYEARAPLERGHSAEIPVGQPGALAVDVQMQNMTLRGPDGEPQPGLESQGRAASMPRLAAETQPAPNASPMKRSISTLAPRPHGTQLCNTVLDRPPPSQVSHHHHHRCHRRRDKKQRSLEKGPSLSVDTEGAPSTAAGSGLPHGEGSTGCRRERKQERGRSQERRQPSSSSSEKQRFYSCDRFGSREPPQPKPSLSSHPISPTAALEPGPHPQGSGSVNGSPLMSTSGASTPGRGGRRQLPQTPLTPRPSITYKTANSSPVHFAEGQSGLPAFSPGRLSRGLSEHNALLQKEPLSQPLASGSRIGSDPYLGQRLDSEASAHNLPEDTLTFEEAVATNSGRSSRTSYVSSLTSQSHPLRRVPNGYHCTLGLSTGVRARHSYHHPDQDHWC

Legend:
[1] = system: Na+ currents in DRG neurons; assay: Whole-cell patch-clamp Na+ currents in DRG neurons; type: cell-based, rat; conditions: 10 μM, 5 min
[2] = system: lamina II neurons in spinal cord slices; assay: Patch-clamp sEPSC recordings in spinal cord slices; type: cell-based, mice; conditions: 10 μM
[3] = system: K+-stimulated iCGRP release from DRG neurons; assay: K+-stimulated iCGRP release from DRG neurons in culture (RIA); type: cell-based, mouse; conditions: 10 μM peptides; for CGRP release evoked by 50 mM potassium chloride: pretreatment 20 min or 12 h
[4] = biological target: Ca2+ currents in DRGs (N-type channels) (Rattus norvegicus, UniProt Q02294); assay: Whole-cell patch-clamp Ca2+ currents in DRG sensory neurons; type: cell-based; conditions: after 15 min TAT-CBD3 10 μM
[5] = system: cortical layer V pyramidal neurons; assay: Cortical slice recordings of evoked EPSCs; type: cell-based, CD1 mice; conditions: 10 μM, local perfusion, 5 Hz stimulus
[6] = system: CaV2.2 cytosolic loop 1 (L1) and distal C-terminus (Ct-dis); assay: Surface plasmon resonance binding to CaV2.2 L1- and Ct-dis-GST fusion proteins; parameters: species or system rat; conditions: peptide 1/3/5 μM
Text: In Vitro Protein Binding Assays. Using Vector NTI (v. 11; Invitrogen) software, primers were designed to amplify regions corresponding to the first cytoslic loop (L1; amino acids 356 to 483) and the distal end of the C-terminus (Ct-dis; amino acids 2133 to 2348) of rat CaV2.2 cDNA from P3 rat brain cDNA. The primers harbored restriction sites (Bam HI or Bgl II (5′) and Eco RI or Mfe I (3′)) to facilitate cloning into […]. In addition to the GST-tag, this vector contains the Glu tag, a sequence of six amino acids (EYMPME). Correctly-amplified PCR products and parent pGex-3x-Glu vector were digested with the indicated restriction enzymes, and then extracted following electrophoresis on an agarose gel. The extracted DNAs were quantified (Nanodrop 1000, Thermo Scientific), and ligations were performed using 6:1 and 3:1 insert to vector molar ratios. […]
Surface Plasmon resonance (SPR). Binding analyses between TAT CBD3 or TAT control peptides and CaV2.2 L1- or Ct-dis-GST fusion proteins was determined by surface plasmon resonance using a BIAcore3000 instrument (Biacore AB, Uppsala, Sweden). […]
Biochemistry and immunocytochemistry experiments. […] The binding between TAT CBD3 or TAT control peptides and CaV2.2 L1- or Ct-dis-GST fusion proteins was determined by surface plasmon resonance using a BIAcore3000 instrument (Biacore AB, Uppsala, Sweden).

| Compound | sodium current density or gating [1] | sodium current density or gating ([1]; listed as TAT-CDB3) | sEPSC amplitude [2] | reduction of sEPSC frequency ([2]; perfusion of spinal cord slices) [%] | resting CGRP release [3] | CGRP release evoked by 50 mM potassium chloride [3] | CGRP release evoked by 50 mM potassium chloride ([3]; listed as TAT CBD3) | further block of Ca2+ currents by addition of ω-conotoxin (1 μM) [4] | eEPSC amplitude [5] | eEPSC amplitude ([5]; listed as TAT CBD3) | binding to immobilized L1 and Ct-dis proteins (surface plasmon resonance) [6] | EPSC frequency (effect in words) [2] |
| --- | --- | --- | --- | --- | --- | --- | --- | --- | --- | --- | --- | --- |
| CC(C)C[C@H](NC(=O)CNC(=O)[C@H](CCCNC(=N)N)NC(=O)[C@@H]1CCCN1C(=O)[C@@H](NC(=O)CNC(=O)[C@H](CCCNC(=N)N)NC(=O)[C@H](CC(C)C)NC(=O)[C@H](CCC(=O)O)NC(=O)[C@H](C)NC(=O)[C@H](CC(C)C)NC(=O)[C@H](CCCNC(=N)N)NC(=O)[C@H](CO)NC(=O)[C@H](CCCNC(=N)N)NC(=O)[C@H](C)NC(=O)[C@H](CCCNC(=N)N)NC(=O)[C@H](CCCNC(=N)N)NC(=O)[C@H](CCCNC(=N)N)NC(=O)[C@H](CCC(N)=O)NC(=O)[C@H](CCCNC(=N)N)NC(=O)[C@H](CCCNC(=N)N)NC(=O)[C@H](CCCCN)NC(=O)[C@H](CCCCN)NC(=O)[C@H](CCCNC(=N)N)NC(=O)CNC(=O)[C@@H](N)Cc1ccc(O)cc1)C(C)C)C(=O)O [TAT-CBD3] (H-YGRKKRRQRRRARSRLAELRGVPRGL-OH; N-terminus and C-terminus assumed) | does not affect Na^+ currents | did not affect sodium current density or gating | without changing amplitudes | 57 | without affecting resting release | reduced CGRP release | reduced stimulated CGRP release | not further blocked | reduces eEPSC amplitude | reduced eEPSCs |  |  |
| CC[C@H](C)[C@H](NC(=O)[C@@H](NC(=O)[C@H](CC(C)C)NC(=O)[C@H](C)NC(=O)[C@H](CCC(=O)O)NC(=O)[C@H](Cc1ccccc1)NC(=O)[C@H](Cc1ccc(O)cc1)NC(=O)[C@H](CC(C)C)NC(=O)[C@H](CCSC)NC(=O)[C@H](CCC(=O)O)NC(=O)[C@H](CCCCN)NC(=O)[C@H](C)NC(=O)[C@H](CCC(=O)O)NC(=O)[C@H](Cc1c[nH]c2ccccc12)NC(=O)[C@H](CCCNC(=N)N)NC(=O)[C@H](CCCNC(=N)N)NC(=O)[C@H](CCCNC(=N)N)NC(=O)[C@H](CCC(N)=O)NC(=O)[C@H](CCCNC(=N)N)NC(=O)[C@H](CCCNC(=N)N)NC(=O)[C@H](CCCCN)NC(=O)[C@H](CCCCN)NC(=O)[C@H](CCCNC(=N)N)NC(=O)CNC(=O)[C@@H](N)Cc1ccc(O)cc1)C(C)C)C(=O)N[C@@H](CCC(=O)O)C(=O)O [TAT-Scramble, reference compound] (H-YGRKKRRQRRRWEAKEMLYFEALVIE-OH; N-terminus and C-terminus assumed) |  |  |  |  |  | but not |  |  | had no effect on the frequency or amplitude of eEPSCs |  | but not | had no effect |
